# Data from PubChem BioAssay AID2685 (National Center for Advancing Translational Sciences (NCATS), 2010).
# The list shows a part of the results. The main result of the screen is listed elsewhere. These columns were measured beside it and carry no call. Most of these compounds were active or inconclusive in the main read-out, so they are no random draw. The note in brackets gives the kind of curve behind each potency; many fits are weak.
# Assay: qHTS Assay for Lipid Storage Modulators in Drosophila S3 Cells;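 on cell number change: cells counted by Cell Tracker Red CMTPX staining in the red channel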
# Details: BODIPY lipid droplet fluorescence, 18-24 h; for cell number change: measured here: cell count max response, cells fed with added oleic acid
# How it was run: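 Laser-scanning cytometry quantifies lipid droplet accumulation (500–530 nm total intensity; droplet/cell object ratio) in oleic acid-fed (400 uM added) Drosophila S3 cells treated with a concentration series. 20 uM Triacsin C defined 100% inhibition.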
# [1] = measured here: cell number channel AC50, cells fed with added oleic acid
# [2] = measured here: lipid fluorescence (Fed channel) AC50, cells fed with added oleic acid
structure (smiles),measurement,setting,value
O=C(NC(=S)Nc1ccccn1)c1ccccc1,cell number change,,10.3%
COc1cccc(/C=C/c2ccc3cccc(O)c3n2)c1,cell number change,,64.5%
same,AC50,[1],"16.4 µM [rising, single point]"
same,AC50,[2],"29.1 µM [rising, partial curve, poor fit]"
CCN(CC)C(=O)c1ccc(Oc2ccc([N+](=O)[O-])cc2Cl)cc1,cell number change,,0.865%
O=C(O)COc1c(-c2ccco2)oc2ccccc2c1=O,cell number change,,-29.4%
same,AC50,[2],"25.9 µM [falling, single point]"
N#Cc1c(SCC(=O)Nc2cccc(F)c2)sc2c(O)cc(=O)[nH]c12,cell number change,,-2.56%
same,AC50,[2],"25.9 µM [rising, single point]"
O=S(=O)(Nc1cccc(-c2nc3cccnc3s2)c1)c1ccc2c(c1)OCCO2,AC50,[2],"1.16 µM [rising, partial curve]"
Cc1cccc2c3nc4ccccc4nc3n(CCCN3C(=O)c4ccccc4C3=O)c12,cell number change,,13.5%
same,AC50,[2],"23.1 µM [rising, single point]"
O=C(c1cccs1)N1CCCC(c2nc3c(nnn3Cc3c(Cl)cccc3Cl)c(=O)[nH]2)C1 (stereo not drawn),cell number change,,-15.4%
CCN(CC)C(=O)CSc1ncnc2c1cnn2Cc1ccccc1,cell number change,,-8.6%
same,AC50,[2],"9.2 µM [rising, partial curve]"
C/C(CC(=O)N1CCN(C=O)CC1)=N\NC(=O)c1ccc([N+](=O)[O-])cc1,cell number change,,-25.6%
same,AC50,[2],"16.4 µM [falling, partial curve, poor fit]"
O=C(CN1CCN(Cc2ccccc2)CC1)NC(=O)NC1CCCCC1,cell number change,,-15.5%
same,AC50,[2],"5.8 µM [falling, full curve]"
S=C(NCCNCc1ccccc1)NC1CCCCC1,cell number change,,-12.8%
same,AC50,[2],"20.6 µM [rising, single point]"
COc1ccccc1/C=C/C(=O)NCC(=O)N/N=C/c1cc(Br)ccc1OC,AC50,[1],"2.59 µM [rising, partial curve]"
CC(C)(CO)NS(=O)(=O)c1ccc2c(c1)oc(=O)c1cc(S(=O)(=O)NC(C)(C)CO)ccc12,cell number change,,-78.3%
same,AC50,[1],"20.6 µM [falling, partial curve]"
same,AC50,[2],"0.116 µM [falling, full curve, poor fit]"
CCN(CC)S(=O)(=O)c1ccc(S(=O)(=O)N2CCC(N3CCCCC3)CC2)cc1,cell number change,,-4.27%
same,AC50,[2],"0.82 µM [falling, partial curve, poor fit]"
COC(=O)c1ccc(/C=N/NC(=O)CC(=O)NC2CCCCC2)cc1,cell number change,,31.8%
same,AC50,[1],"29.1 µM [rising, single point]"
Cc1cc(O)c(C(C[N+](=O)[O-])c2ccc(Cl)cc2Cl)c(=O)o1 (stereo not drawn),AC50,[1],"0.13 µM [falling, full curve, poor fit]"
CCC1=Nc2cc(C(=O)NCc3ccco3)ccc2Sc2ccc(C)cc21,cell number change,,-19.2%
same,AC50,[2],"4.11 µM [falling, full curve, poor fit]"
CCn1cc(CNC(=O)c2c(-c3c(Cl)cccc3Cl)noc2C)c(C)n1,cell number change,,-0.157%
same,AC50,[2],"7.31 µM [falling, partial curve, poor fit]"
CCOC(=O)C1CCCN(C(=O)C(=O)Nc2ccc3nc4n(c(=O)c3c2)CCCCC4)C1 (stereo not drawn),cell number change,,5.19%
same,AC50,[2],"29.1 µM [falling, single point]"
CNC(=O)NNC(=O)c1csc(Cc2c(Cl)sc3ccc(Cl)cc23)n1,cell number change,,27.9%
same,AC50,[1],"0.82 µM [rising, full curve, poor fit]"
same,AC50,[2],"0.0326 µM [rising, full curve, poor fit]"
Cc1cc(C(=O)N2CCN(c3ccccn3)CC2)c(C)o1,cell number change,,-3.51%
same,AC50,[1],"0.731 µM [falling, single point]"
same,AC50,[2],"6.51 µM [falling, single point]"
CC(C)c1ccc(/C=c2\sc3nc(-c4ccncc4)nn3c2=O)cc1,cell number change,,19.8%
same,AC50,[1],"1.3 µM [falling, full curve]"
same,AC50,[2],"0.164 µM [falling, full curve, poor fit]"
Cc1ccc(-n2c(C)c3c(C)nnc(C)c3c2C)cc1C,cell number change,,-56.7%
same,AC50,[1],"16.4 µM [falling, partial curve]"
CC(C)c1ccccc1-n1c(SCC(=O)N2CCc3ccccc3C2)nc2ccccc2c1=O,cell number change,,-47.2%
same,AC50,[1],"14.6 µM [falling, single point]"
C[C@@]12CCC3[C@@](CCC4[C@@]3(C)CCC[C@@]4(C)C(=O)O)(CC1=O)C2 (stereo partly drawn),cell number change,,-2.33%
same,AC50,[1],"0.58 µM [falling, partial curve]"
same,AC50,[2],"0.517 µM [falling, partial curve]"
CC1(c2cccc(Br)c2)NC(=O)N(CC(=O)NCC2CCCO2)C1=O (stereo not drawn),cell number change,,21.5%
same,AC50,[1],"0.00461 µM [falling, full curve, poor fit]"
Cc1cccc(NC(=O)C(C)SCc2nc3sc4c(c3c(=O)[nH]2)CCCC4)n1 (stereo not drawn),cell number change,,18.5%
N#CC(C#N)=C(N)Nc1cccc(Cl)c1,cell number change,,-17.3%
O=C(O)c1ccccc1-c1ccccc1C(=O)Nc1ccccc1-c1ccccc1,cell number change,,-10.8%
same,AC50,[2],"5.8 µM [rising, full curve]"
COC(=O)c1ccccc1NC(=O)N1CCCC1,cell number change,,10.2%
O=C(N/N=C/c1ccccc1F)NC12CC3CC(CC(C3)C1)C2,cell number change,,-20.6%
same,AC50,[2],"0.00461 µM [falling, full curve, poor fit]"
Cc1ccc(C(=O)NC(C)c2ccc(F)cc2)cc1 (stereo not drawn),cell number change,,21.2%
same,AC50,[2],"0.461 µM [rising, full curve, poor fit]"
O=C(c1ccc([N+](=O)[O-])s1)N1CCc2ccccc21,cell number change,,2.86%
same,AC50,[1],"0.0731 µM [rising, full curve, poor fit]"
NC(=O)c1c(NC(=O)c2cccnc2)sc2c1CCCC2,cell number change,,-0.902%
same,AC50,[1],"1.16 µM [rising, full curve, poor fit]"
COC(=O)C(CC(C)C)NC(=O)c1ccc([N+](=O)[O-])c(C)c1 (stereo not drawn),cell number change,,-15.1%
same,AC50,[2],"29.1 µM [falling, single point]"
Cc1ccnc(N/C=C(\C#N)c2nc(-c3cccc(Br)c3)cs2)c1,cell number change,,35.2%
same,AC50,[1],"0.731 µM [rising, full curve]"
same,AC50,[2],"1.3 µM [rising, partial curve]"
COc1ccc2c(c1)CCc1c(C(=O)N3CCCc4ccccc43)noc1-2,cell number change,,93.6%
same,AC50,[1],"13 µM [rising, partial curve]"
same,AC50,[2],"29.1 µM [rising, single point]"
COc1ccc2nc(N3CCOCC3)cc(C)c2c1,cell number change,,19.4%
same,AC50,[2],"2.06 µM [falling, partial curve]"
CCCC(CCC(=O)OC)(C(=O)OCC)c1csc(N)n1 (stereo not drawn),cell number change,,2.62%
COc1cc(-c2nc(-c3ccc(Br)o3)no2)cc(OC)c1OC,cell number change,,-24.3%
same,AC50,[2],"4.61 µM [rising, partial curve]"
O=C(O)CC1NC(=O)N(c2ccccc2)C1=O (stereo not drawn),cell number change,,-13.2%
same,AC50,[2],"18.4 µM [falling, single point]"
C=CCN1CN(S(=O)(=O)c2cccc(Cl)c2)c2nc3ccccc3nc21,cell number change,,4.58%
same,AC50,[2],"0.461 µM [rising, partial curve, poor fit]"
CC(=O)N(Cc1ccc(F)cc1)C1=C(NCc2ccccc2)C(=O)c2ccccc2C1=O,cell number change,,-23.1%
same,AC50,[2],"20.6 µM [falling, single point]"
Nc1ccc(C(=O)OCC(=O)NC(=O)c2ccccc2)cc1[N+](=O)[O-],cell number change,,0.5%
O=C(CCC(=O)N(CC(=O)NC1CCCC1)Cc1ccc2c(c1)OCO2)Nc1nccs1,cell number change,,12.9%
same,AC50,[2],"4.61 µM [rising, partial curve]"
O=C(c1ccccc1)N1CCN(CCc2ccccc2)CC1,cell number change,,13.5%
same,AC50,[2],"0.651 µM [rising, partial curve, poor fit]"
COc1cc(/C=N/NC(=O)c2ccccc2O)ccc1OC(=O)CC1SC(=O)NC1=O (stereo not drawn),cell number change,,-14.4%
same,AC50,[2],"29.1 µM [falling, single point]"
Cc1ccc(CNc2ccc3c(c2)OCO3)c(C)c1,cell number change,,-38.6%
same,AC50,[1],"32.6 µM [falling, single point]"
same,AC50,[2],"18.4 µM [falling, partial curve]"
O=C1c2cccc3c([N+](=O)[O-])ccc(c23)C(=O)N1Cc1cccnc1,cell number change,,-81.2%
same,AC50,[1],"18.4 µM [falling, single point]"
same,AC50,[2],"20.6 µM [falling, single point]"
Cc1cc(C)cc(NC(=O)Nc2cnccn2)c1,cell number change,,2.6%
CCOC(=O)c1oc2cc(C)cc(O)c2c(=O)c1-c1csc(C)n1,cell number change,,35%
same,AC50,[1],"29.1 µM [rising, single point]"
Cc1oc2c(c1C(=O)NCCCC(=O)O)CCCC2,cell number change,,-77%
same,AC50,[1],"20.6 µM [falling, single point]"
COc1ccc(C(OCC(O)CNC(C)c2ccccc2)c2ccc(OC)cc2)cc1 (stereo not drawn),cell number change,,9.27%
CC1(C)C(=O)N(OCc2ccccc2)C(C)(C)C(=O)N1OCc1ccccc1,cell number change,,100%
same,AC50,[1],"9.2 µM [rising, partial curve]"
same,AC50,[2],"14.6 µM [rising, partial curve]"
CCOC(=O)N1CCN(C(=O)CSCc2ccccc2)CC1,cell number change,,8.41%
same,AC50,[1],"5.17 µM [rising, single point]"
CCCCN(C)C(=O)C1CCN(Cc2cccc(OCc3ccccc3)c2)CC1,cell number change,,-29.4%
COc1ccccc1-n1cnc2cc(C(=O)NCC3CCCO3)ccc21 (stereo not drawn),cell number change,,0.879%
same,AC50,[2],"11.6 µM [rising, partial curve]"
O=C(c1ccc2c(c1)OCO2)N(c1ccc(Br)cc1)C1C=CS(=O)(=O)C1 (stereo not drawn),cell number change,,-14.4%
COc1ccc(CCNC(=O)CSc2nc3cc(Cl)ccc3o2)cc1OC,cell number change,,-68.4%
same,AC50,[1],"18.4 µM [falling, partial curve]"
same,AC50,[2],"9.2 µM [falling, partial curve]"
CCSC1=N/C(=C\c2ccccc2)C(=O)N1,AC50,[2],"29.1 µM [rising, single point]"

# Exported with tabs: entries from further up.
structure (smiles)	measurement	setting	value
O=C(NC(=S)Nc1ccccn1)c1ccccc1	cell number change		10.3%
O=C(O)COc1c(-c2ccco2)oc2ccccc2c1=O	cell number change		-29.4%
same	AC50	[2]	25.9 µM [falling, single point]
Cc1cccc2c3nc4ccccc4nc3n(CCCN3C(=O)c4ccccc4C3=O)c12	AC50	[2]	23.1 µM [rising, single point]
S=C(NCCNCc1ccccc1)NC1CCCCC1	cell number change		-12.8%
COC(=O)c1ccc(/C=N/NC(=O)CC(=O)NC2CCCCC2)cc1	AC50	[1]	29.1 µM [rising, single point]
Cc1cc(C(=O)N2CCN(c3ccccn3)CC2)c(C)o1	AC50	[2]	6.51 µM [falling, single point]
CC(C)c1ccc(/C=c2\sc3nc(-c4ccncc4)nn3c2=O)cc1	AC50	[1]	1.3 µM [falling, full curve]
same	AC50	[2]	0.164 µM [falling, full curve, poor fit]
Cc1ccc(-n2c(C)c3c(C)nnc(C)c3c2C)cc1C	cell number change		-56.7%
O=C(O)c1ccccc1-c1ccccc1C(=O)Nc1ccccc1-c1ccccc1	AC50	[2]	5.8 µM [rising, full curve]
O=C(N/N=C/c1ccccc1F)NC12CC3CC(CC(C3)C1)C2	cell number change		-20.6%
same	AC50	[2]	0.00461 µM [falling, full curve, poor fit]
Cc1ccc(C(=O)NC(C)c2ccc(F)cc2)cc1 (stereo not drawn)	cell number change		21.2%
same	AC50	[2]	0.461 µM [rising, full curve, poor fit]
O=C(O)CC1NC(=O)N(c2ccccc2)C1=O (stereo not drawn)	cell number change		-13.2%
C=CCN1CN(S(=O)(=O)c2cccc(Cl)c2)c2nc3ccccc3nc21	AC50	[2]	0.461 µM [rising, partial curve, poor fit]
O=C(CCC(=O)N(CC(=O)NC1CCCC1)Cc1ccc2c(c1)OCO2)Nc1nccs1	cell number change		12.9%
Cc1ccc(CNc2ccc3c(c2)OCO3)c(C)c1	cell number change		-38.6%
O=C1c2cccc3c([N+](=O)[O-])ccc(c23)C(=O)N1Cc1cccnc1	AC50	[2]	20.6 µM [falling, single point]
CCOC(=O)c1oc2cc(C)cc(O)c2c(=O)c1-c1csc(C)n1	cell number change		35%
CCOC(=O)N1CCN(C(=O)CSCc2ccccc2)CC1	AC50	[1]	5.17 µM [rising, single point]
